Drawing on the supplement of paper PMC10849652, this text covers log2 fold change for 33 targets.

Sequences of proteins named here, by UniProt entry; tags and fusion partners are left off. A change or cut given only in a name is not applied to a line headed by its entry.
UniProt Q8N3C7: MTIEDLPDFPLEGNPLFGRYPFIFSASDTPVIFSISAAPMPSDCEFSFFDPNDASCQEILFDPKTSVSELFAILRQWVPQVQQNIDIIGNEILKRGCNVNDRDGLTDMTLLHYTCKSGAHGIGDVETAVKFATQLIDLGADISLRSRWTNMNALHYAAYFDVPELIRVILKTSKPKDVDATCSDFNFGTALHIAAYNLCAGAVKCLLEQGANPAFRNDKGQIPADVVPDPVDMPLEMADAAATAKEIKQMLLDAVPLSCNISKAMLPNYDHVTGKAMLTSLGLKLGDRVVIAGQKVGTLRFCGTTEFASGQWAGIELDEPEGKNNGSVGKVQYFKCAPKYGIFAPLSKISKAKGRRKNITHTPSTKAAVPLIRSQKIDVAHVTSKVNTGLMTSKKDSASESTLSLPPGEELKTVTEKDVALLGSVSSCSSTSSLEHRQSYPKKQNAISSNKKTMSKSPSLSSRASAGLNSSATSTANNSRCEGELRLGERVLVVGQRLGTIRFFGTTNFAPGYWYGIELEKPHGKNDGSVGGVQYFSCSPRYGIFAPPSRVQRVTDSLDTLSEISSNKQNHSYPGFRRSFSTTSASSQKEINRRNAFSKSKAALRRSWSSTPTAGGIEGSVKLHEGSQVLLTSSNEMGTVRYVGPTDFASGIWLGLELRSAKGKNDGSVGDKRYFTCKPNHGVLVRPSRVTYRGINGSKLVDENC
UniProt Q9UBY8, whole entry, looked up: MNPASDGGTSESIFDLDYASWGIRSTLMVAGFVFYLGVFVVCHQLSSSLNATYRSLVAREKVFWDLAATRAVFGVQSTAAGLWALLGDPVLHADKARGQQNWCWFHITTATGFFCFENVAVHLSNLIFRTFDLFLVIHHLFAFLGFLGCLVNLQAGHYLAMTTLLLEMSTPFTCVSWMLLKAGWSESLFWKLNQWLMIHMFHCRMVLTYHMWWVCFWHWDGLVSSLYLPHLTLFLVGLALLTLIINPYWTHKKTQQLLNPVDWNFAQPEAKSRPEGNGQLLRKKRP
UniProt P0C7P0: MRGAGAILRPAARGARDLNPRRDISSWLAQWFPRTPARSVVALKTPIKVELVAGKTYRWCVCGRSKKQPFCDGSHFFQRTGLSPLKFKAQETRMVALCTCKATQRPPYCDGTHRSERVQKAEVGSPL
UniProt P09496: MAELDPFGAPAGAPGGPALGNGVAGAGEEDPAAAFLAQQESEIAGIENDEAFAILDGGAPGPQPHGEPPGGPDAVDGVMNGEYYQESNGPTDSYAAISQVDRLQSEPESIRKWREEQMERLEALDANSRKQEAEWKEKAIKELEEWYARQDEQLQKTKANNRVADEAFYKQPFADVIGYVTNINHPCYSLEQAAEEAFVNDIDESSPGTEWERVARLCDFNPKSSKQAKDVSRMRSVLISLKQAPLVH
UniProt Q8IYA6: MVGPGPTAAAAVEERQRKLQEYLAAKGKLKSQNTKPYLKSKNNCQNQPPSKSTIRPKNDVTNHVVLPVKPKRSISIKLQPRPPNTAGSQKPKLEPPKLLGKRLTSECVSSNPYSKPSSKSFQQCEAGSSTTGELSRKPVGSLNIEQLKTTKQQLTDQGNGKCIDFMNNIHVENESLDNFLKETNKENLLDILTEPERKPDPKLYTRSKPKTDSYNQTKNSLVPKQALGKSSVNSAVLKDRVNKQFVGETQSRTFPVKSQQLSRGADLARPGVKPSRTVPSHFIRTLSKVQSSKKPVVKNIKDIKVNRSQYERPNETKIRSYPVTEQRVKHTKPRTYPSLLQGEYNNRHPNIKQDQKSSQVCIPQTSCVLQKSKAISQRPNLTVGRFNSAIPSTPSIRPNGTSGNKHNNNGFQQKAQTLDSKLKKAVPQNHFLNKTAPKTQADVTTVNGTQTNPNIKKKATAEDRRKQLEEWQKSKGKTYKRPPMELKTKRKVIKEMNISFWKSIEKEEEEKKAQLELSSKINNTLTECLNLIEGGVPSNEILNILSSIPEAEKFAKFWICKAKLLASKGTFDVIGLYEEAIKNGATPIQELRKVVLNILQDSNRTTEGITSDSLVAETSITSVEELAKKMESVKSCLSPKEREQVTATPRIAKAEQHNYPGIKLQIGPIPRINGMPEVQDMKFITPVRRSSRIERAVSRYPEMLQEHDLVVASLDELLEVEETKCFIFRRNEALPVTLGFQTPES
UniProt Q86X52: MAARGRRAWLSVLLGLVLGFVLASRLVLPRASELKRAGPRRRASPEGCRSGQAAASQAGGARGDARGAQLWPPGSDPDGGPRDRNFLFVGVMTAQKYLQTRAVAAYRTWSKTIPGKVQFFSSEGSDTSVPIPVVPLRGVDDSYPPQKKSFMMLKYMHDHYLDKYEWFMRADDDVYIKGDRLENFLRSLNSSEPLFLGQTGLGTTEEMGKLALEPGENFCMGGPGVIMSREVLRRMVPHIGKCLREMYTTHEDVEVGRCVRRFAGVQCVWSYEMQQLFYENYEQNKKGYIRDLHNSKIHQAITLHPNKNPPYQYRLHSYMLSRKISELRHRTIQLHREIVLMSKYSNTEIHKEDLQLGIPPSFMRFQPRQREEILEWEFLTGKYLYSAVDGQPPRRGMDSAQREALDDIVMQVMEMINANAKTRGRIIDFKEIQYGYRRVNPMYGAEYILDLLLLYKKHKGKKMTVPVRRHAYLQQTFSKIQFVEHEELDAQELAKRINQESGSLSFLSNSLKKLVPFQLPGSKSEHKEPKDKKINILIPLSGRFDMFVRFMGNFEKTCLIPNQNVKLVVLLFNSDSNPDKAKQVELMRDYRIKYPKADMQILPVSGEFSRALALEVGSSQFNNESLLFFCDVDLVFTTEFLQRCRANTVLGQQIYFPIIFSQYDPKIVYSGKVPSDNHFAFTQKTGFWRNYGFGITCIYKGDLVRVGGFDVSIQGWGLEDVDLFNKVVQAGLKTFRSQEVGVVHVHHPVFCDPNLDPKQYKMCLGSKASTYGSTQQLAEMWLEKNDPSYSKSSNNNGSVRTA
UniProt P49759: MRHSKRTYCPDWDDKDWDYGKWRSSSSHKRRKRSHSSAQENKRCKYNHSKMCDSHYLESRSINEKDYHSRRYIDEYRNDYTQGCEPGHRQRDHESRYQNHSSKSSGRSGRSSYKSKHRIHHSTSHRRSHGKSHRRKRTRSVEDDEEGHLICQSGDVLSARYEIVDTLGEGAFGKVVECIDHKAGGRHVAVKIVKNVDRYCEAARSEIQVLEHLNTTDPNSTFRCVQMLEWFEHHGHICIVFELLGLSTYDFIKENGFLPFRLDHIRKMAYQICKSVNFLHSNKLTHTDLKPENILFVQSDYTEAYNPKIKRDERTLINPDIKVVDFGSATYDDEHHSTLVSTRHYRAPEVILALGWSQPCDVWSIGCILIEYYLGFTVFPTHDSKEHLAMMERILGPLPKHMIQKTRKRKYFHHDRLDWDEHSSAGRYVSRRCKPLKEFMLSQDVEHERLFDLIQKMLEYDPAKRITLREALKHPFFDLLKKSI
UniProt Q96EP1: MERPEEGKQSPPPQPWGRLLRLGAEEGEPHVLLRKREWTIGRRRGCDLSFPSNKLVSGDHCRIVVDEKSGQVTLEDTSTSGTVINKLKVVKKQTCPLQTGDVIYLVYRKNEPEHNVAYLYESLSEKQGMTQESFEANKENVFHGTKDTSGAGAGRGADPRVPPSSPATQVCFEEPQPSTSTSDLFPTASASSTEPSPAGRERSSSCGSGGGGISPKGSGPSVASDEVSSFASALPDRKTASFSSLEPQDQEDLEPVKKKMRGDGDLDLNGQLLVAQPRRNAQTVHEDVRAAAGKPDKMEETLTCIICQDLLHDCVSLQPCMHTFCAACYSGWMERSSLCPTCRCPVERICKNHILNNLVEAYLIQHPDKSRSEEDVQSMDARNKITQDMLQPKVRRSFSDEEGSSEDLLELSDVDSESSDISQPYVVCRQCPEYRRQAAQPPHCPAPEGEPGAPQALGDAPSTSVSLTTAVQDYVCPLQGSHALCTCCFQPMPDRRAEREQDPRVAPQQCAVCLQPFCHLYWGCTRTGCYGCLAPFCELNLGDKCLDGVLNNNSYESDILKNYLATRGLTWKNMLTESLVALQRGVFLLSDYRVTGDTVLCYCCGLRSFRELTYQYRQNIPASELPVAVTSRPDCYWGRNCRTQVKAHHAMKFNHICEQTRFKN
UniProt Q13286: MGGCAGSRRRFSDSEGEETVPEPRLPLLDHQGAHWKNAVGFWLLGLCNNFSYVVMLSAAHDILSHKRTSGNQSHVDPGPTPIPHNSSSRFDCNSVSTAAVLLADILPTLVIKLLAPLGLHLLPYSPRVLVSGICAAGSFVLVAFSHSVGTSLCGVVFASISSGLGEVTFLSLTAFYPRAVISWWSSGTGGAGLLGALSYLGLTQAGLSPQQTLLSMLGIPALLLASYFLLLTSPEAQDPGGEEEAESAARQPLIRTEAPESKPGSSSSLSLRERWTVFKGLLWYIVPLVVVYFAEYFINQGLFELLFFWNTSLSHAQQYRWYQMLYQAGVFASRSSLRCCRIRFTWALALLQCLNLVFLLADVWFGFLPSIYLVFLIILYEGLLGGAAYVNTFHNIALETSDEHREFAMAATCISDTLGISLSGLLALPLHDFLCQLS
UniProt Q2KHT3: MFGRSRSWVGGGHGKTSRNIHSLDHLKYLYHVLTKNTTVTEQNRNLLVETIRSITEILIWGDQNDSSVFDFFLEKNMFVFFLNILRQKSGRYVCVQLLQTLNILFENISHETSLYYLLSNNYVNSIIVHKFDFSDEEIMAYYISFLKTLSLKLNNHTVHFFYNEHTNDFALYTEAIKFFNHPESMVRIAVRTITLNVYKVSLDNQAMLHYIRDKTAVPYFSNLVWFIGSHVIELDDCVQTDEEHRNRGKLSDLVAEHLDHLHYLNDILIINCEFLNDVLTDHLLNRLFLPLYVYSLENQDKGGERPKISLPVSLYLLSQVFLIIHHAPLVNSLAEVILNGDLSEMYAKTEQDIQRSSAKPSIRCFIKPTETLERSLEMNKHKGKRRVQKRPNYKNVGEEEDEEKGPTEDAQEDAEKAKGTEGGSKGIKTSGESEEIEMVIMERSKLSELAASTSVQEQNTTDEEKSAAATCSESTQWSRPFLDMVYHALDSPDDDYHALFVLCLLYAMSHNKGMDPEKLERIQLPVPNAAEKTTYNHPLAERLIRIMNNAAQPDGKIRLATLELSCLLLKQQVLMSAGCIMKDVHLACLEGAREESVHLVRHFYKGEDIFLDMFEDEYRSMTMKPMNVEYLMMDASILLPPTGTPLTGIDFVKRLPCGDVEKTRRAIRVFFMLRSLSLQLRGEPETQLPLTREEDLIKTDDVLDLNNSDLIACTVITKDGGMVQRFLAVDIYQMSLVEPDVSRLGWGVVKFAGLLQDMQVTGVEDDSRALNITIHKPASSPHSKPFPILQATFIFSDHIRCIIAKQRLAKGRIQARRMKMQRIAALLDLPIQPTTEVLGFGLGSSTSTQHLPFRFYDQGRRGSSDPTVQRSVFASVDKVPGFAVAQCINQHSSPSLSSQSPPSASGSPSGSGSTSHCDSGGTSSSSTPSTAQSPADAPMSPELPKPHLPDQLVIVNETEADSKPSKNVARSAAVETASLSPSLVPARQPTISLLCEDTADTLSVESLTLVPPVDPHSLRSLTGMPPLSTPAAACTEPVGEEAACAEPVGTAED
UniProt Q9NX76: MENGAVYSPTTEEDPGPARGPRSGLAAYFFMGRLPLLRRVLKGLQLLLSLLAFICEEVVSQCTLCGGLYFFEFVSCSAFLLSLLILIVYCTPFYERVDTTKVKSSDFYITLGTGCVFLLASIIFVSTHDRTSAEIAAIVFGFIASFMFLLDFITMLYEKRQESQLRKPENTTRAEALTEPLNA
UniProt O96017, whole entry, looked up: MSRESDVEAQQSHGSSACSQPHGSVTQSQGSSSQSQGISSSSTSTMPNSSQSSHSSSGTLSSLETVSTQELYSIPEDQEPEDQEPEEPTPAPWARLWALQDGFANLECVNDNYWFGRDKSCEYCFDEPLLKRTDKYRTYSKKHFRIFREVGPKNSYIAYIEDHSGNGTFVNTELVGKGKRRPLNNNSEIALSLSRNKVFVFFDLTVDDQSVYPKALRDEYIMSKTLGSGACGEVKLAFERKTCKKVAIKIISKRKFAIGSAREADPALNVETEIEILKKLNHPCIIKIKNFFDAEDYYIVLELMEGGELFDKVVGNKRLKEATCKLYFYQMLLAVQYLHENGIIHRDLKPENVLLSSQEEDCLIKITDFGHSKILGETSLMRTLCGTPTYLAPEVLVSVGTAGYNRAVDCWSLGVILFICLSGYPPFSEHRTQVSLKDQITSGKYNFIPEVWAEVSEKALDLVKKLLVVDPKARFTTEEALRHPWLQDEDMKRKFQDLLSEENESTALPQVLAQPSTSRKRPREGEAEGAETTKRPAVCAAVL
UniProt P0CG13, whole entry, looked up: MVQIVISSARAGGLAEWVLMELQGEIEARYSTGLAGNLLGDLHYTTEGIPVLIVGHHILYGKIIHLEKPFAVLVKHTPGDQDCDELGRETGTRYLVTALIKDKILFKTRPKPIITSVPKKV
UniProt P62633: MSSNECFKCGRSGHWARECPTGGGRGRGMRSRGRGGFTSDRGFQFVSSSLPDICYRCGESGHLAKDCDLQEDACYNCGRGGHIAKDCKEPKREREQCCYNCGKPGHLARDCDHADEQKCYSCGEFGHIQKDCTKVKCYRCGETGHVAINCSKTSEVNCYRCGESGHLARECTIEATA

The other results are listed elsewhere or left out.

Compound in the first assay: CC(C)(O)CC(=O)NCCn1ccc2ncnc(Nc3ccc(Oc4cccc(C(F)(F)F)c4)c(Cl)c3)c21
The assay can be described thus: log2 fold change, soluble protein after heating vs DMSO (PISA); higher = thermal stabilisation; K562 lysate, 10 uM; active = over 0.2 and 3.5 SD of the protein, either way, in both replicates (recomputed). In outline:
(§1)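 K562 pellets were dounce-homogenised in PBS pH 7.4 containing 1 mM MgCl2, and the crude extract, at 1 mg/mL protein, was exposed to 10 μM compound for 30 min. Aliquots were heated for 3 min across 48°C-58°C, pooled, brought to 0.5% NP-40 at 4°C and spun at 21,000xg for 90 min, with the supernatant taken as soluble protein. TMTpro 16plex LC-MS/MS with equalised channel sums quantified that protein. Values are log-two fold changes in thermal stability relative to solvent controls, taken from duplicates.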
As for CHPF2 (UniProt Q9P2E5), the log2 fold change is inactive: -0.02.
In the case of CLIP4 (UniProt Q8N3C7), the log2 fold change was inactive: -0.059.
For CLN8 (UniProt Q9UBY8), the log2 fold change is inactive: 0.039.
In the case of CLUAP1 (UniProt Q96AJ1), the log2 fold change is inactive: -0.12.
Still for that read-out and setting: the result for CISD3 (UniProt P0C7P0) reads inactive: -0.047; that for CLCN2 (UniProt P51788), inactive: -0.179; that for CLUAP1 (UniProt I3L2E1), inactive: -0.446.
For the target CLTA (UniProt P09496), the log2 fold change was inactive: 0.007.
The same measure, in the same setting: then CKAP2L (UniProt Q8IYA6), with inactive: -0.052; and CLIP1 isoform 2 (UniProt P30622), with inactive: -0.04.
Still for that read-out and setting: then CLTC (UniProt Q00610), with inactive: -0.013.
As for CHD9 (UniProt Q3L8U1), the log2 fold change is inactive: -0.147.
On the same count and under the same terms, then CHSY1 (UniProt Q86X52), with inactive: -0.22; and CLN6 (UniProt Q9NWW5), with inactive: -0.056; and CLIC6 (UniProt Q96NY7), with inactive: 0.001.
With CLINT1 isoform 3 (UniProt Q14677), the log2 fold change is inactive: 0.011.
The same measure, in the same setting: the result for CLK1 isoform 3 (UniProt P49759) reads inactive: -0.196.
For CHFR (UniProt Q96EP1), the log2 fold change is inactive: -0.049.
Still for that read-out and setting: the result for CLN3 (UniProt Q13286) reads inactive: -0.026; that for CLCN6 isoform 5 (UniProt P51797), inactive: -0.095.
Consider CLEC16A isoform 2 (UniProt Q2KHT3), for which the log2 fold change is inactive: 0.048.
On the same count and under the same terms, the result for CMTM6 (UniProt Q9NX76) reads inactive: -0.028.
In the case of CHPF (UniProt Q8IZ52), the log2 fold change is inactive: -0.578.
Take CHEK2 (UniProt O96017): the log2 fold change was inactive: 0.081.
In the case of CHTF8 (UniProt P0CG13), the log2 fold change is inactive: -0.087.
As for CLDN12 (UniProt P56749), the log2 fold change was inactive: -0.122.

Compound in another assay: CC(C)C1=C2N=C(C=C(N2N=C1)NCC3=CC=CC=C3)NCCCCCCN
The assay is described as above. A digest of the protocol:
as §1
As to CHPF2 (UniProt Q9P2E5), the log2 fold change was inactive: -0.097.
On to CHST10 (UniProt O43529), for which the log2 fold change is inactive: -0.013.
The same measure, in the same setting: then CLIP4 (UniProt Q8N3C7), with inactive: 0.005.
With CLN8 (UniProt Q9UBY8), the log2 fold change was inactive: -0.006.
Turning to CLUAP1 (UniProt Q96AJ1), the log2 fold change was inactive: -0.124.
With CISD3 (UniProt P0C7P0), the log2 fold change was inactive: -0.008.
Regarding CLCN2 (UniProt P51788), the log2 fold change was inactive: -0.171.
CLUAP1 (UniProt I3L2E1): the log2 fold change was inactive: 0.128.
Consider CLTA (UniProt P09496), for which the log2 fold change is inactive: -0.04.
As for CKAP2L (UniProt Q8IYA6), the log2 fold change is inactive: -0.336.
Take CLK3 (UniProt P49761): the log2 fold change is inactive: -0.01.
With CLIP1 isoform 2 (UniProt P30622), the log2 fold change was inactive: -0.054.
Regarding CLTC (UniProt Q00610), the log2 fold change was inactive: -0.008.
Regarding CHD9 (UniProt Q3L8U1), the log2 fold change was inactive: -0.074.
For the target CHSY1 (UniProt Q86X52), the log2 fold change is inactive: 0.056.
As to CNBP (UniProt P62633), the log2 fold change was inactive: -0.51.
Consider CLN6 (UniProt Q9NWW5), for which the log2 fold change was inactive: 0.
Same read-out and setting: the result for CLIP2 (UniProt Q9UDT6) reads inactive: -0.067; that for CMTM4 (UniProt Q8IZR5), inactive: -0.162; that for CLIC6 (UniProt Q96NY7), inactive: -0.063.
On to CLINT1 isoform 3 (UniProt Q14677), for which the log2 fold change was inactive: 0.066.
Consider CLK1 isoform 3 (UniProt P49759), for which the log2 fold change is inactive: -0.022.
On to CLASP1 isoform 4 (UniProt Q7Z460), for which the log2 fold change was inactive: -0.124.
On to CHFR (UniProt Q96EP1), for which the log2 fold change is inactive: -0.047.
For the target CLN3 (UniProt Q13286), the log2 fold change was inactive: -0.104.
Same read-out and setting: the result for CLN5 (UniProt O75503) reads inactive: 0.035.
On to CLCN6 isoform 5 (UniProt P51797), for which the log2 fold change is inactive: 0.021.
The same measure, in the same setting: the result for CLEC16A isoform 2 (UniProt Q2KHT3) reads inactive: 0.073.
Take CMTM6 (UniProt Q9NX76): the log2 fold change is inactive: -0.048.
On to CHPF (UniProt Q8IZ52), for which the log2 fold change is inactive: 0.022.
On the same count and under the same terms, the result for CHEK2 (UniProt O96017) reads inactive: 0.211; that for CHTF8 (UniProt P0CG13), inactive: -0.054.
Turning to CLDN12 (UniProt P56749), the log2 fold change was inactive: 0.222.

Compound in a further assay: CC1=C(C(CC(=O)N1)C2=CC=C(C=C2)C(F)(F)F)C(=O)NC3=C(C=C4C(=C3)C=NN4)F
The description is as above. A digest of the protocol:
as §1
As to CLIP4 (UniProt Q8N3C7), the log2 fold change is inactive: 0.018.
On the same count and under the same terms, the result for CLN8 (UniProt Q9UBY8) reads inactive: -0.064; that for CISD3 (UniProt P0C7P0), inactive: 0.006; that for CLUAP1 (UniProt I3L2E1), inactive: -0.113.
On the same count and under the same terms, the result for CLTA (UniProt P09496) reads inactive: -0.053.
On the same count and under the same terms, then CKAP2L (UniProt Q8IYA6), with inactive: 0.003; and CLIP1 isoform 2 (UniProt P30622), with inactive: 0.017.
Consider CLTC (UniProt Q00610), for which the log2 fold change was inactive: -0.008.
Still for that read-out and setting: then CHD9 (UniProt Q3L8U1), with inactive: 0.212.
On to CHSY1 (UniProt Q86X52), for which the log2 fold change was inactive: 0.156.
On the same count and under the same terms, then CLN6 (UniProt Q9NWW5), with inactive: 0.026.
As to CLINT1 isoform 3 (UniProt Q14677), the log2 fold change is inactive: 0.037.
Take CLK1 isoform 3 (UniProt P49759): the log2 fold change was inactive: 0.009.
On to CLASP1 isoform 4 (UniProt Q7Z460), for which the log2 fold change is inactive: -0.226.
Take CHFR (UniProt Q96EP1): the log2 fold change is inactive: 0.003.
The same measure, in the same setting: then CLN3 (UniProt Q13286), with inactive: 0.112; and CLN5 (UniProt O75503), with inactive: 0.119.
As to CLEC16A isoform 2 (UniProt Q2KHT3), the log2 fold change was inactive: -0.289.
As for CMTM6 (UniProt Q9NX76), the log2 fold change was inactive: 0.009.
With CHEK2 (UniProt O96017), the log2 fold change is inactive: 0.013.
For CHTF8 (UniProt P0CG13), the log2 fold change is inactive: 0.045.
The same measure, in the same setting: the result for CLDN12 (UniProt P56749) reads inactive: 0.065.
